In the supplement of paper PMC3334620:
Over roughly 33,000 sequences, “E-score (-0.5 to 0.5)” has its median near -0.0034; the highest 2% begin near 0.25. The list shows a part of the results.

What follows are sequences tested against T1, Yap3 (UniProt P38749) (assay: PBM E-score (8-mer binding enrichment) (E-score (-0.5 to 0.5)); higher = stronger / more preferred TF binding). Conditions: protein concentration: 100 nM; construct: GST-full length.
T1 sequence: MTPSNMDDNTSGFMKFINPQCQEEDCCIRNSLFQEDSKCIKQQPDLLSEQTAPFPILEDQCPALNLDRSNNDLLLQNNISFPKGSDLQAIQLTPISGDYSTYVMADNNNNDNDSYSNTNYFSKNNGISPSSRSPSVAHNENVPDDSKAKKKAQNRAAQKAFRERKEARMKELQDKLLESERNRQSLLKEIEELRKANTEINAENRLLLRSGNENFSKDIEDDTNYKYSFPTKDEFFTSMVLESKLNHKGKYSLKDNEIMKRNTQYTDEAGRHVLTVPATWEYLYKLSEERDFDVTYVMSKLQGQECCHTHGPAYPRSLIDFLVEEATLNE
Summary of the method: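 Universal all-10-mer Agilent arrays, fresh or stripped once, were converted to double-stranded form by primer extension. GST-tagged yeast transcription factors from PURExpress in vitro transcription/translation, full-length or DNA-binding domain only, were applied at about 100-200 nM and detected with fluorescent anti-GST. After masliner normalisation, the Universal PBM Analysis Suite scored each ungapped eight-base word together with its reverse complement by E-score.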

| Sequence | PBM E-score |
| --- | --- |
| GGCAACCA | -0.0656 |
| AGATGAAG | -0.181 |
| GCCTGTTA | -0.0396 |
| AGGGGCTG | -0.0704 |
| ATTTCTTC | 0.106 |
| ACTCATGG | -0.0507 |
| CTCCACAC | -0.00615 |
| ATGGTTAG | 0.0841 |
| GCAAATCC | 0.156 |
| AGCATCCA | -0.103 |
| CGGTAATC | -0.0393 |
| CTATCCTA | -0.0511 |
| GCCGCCAC | -0.286 |
| GGGGAGCA | -0.3 |
| CTGCAAAG | -0.0978 |
| AACCGGAG | -0.134 |
| CCAGTTAG | 0.0535 |
| CTGCCCAG | -0.453 |
| CTGCTTAA | -0.0735 |
| CGGCAACG | -0.19 |
| GGCTAGAC | -0.225 |
| CAGCTAAG | -0.233 |

Fetched one by one from the list above:

| Sequence | PBM E-score |
| --- | --- |
| AACCGGAG | -0.134 |
| CGGCAACG | -0.19 |
| CTGCAAAG | -0.0978 |
| GGGGAGCA | -0.3 |

More entries

| Sequence | PBM E-score |
| --- | --- |
| ACAACGTG | -0.0198 |
| CTGAAGTA | -0.047 |
| AGCGACAA | 0.0277 |
| AAGGTTTG | 0.0653 |
| GTTTGGCA | -0.136 |
| CTTCTGCC | -0.0432 |
| AAGCTTGT | 0.0865 |
| CGAGCTTA | 0.00548 |
| CCTGATCC | -0.117 |
| GCCGTCAA | -0.057 |
| AAATACCC | -0.062 |
| CCTATCTC | -0.0285 |
| GACGGCTC | -0.125 |
| CTGGAGCA | -0.00117 |
| TATGGCAA | 0.0667 |
| ATGGAGGC | -0.168 |
| CATACAGA | 0.118 |
| ATGCCTGC | -0.121 |
| CTACGTAA | 0.135 |
| AAGTTCGA | 0.168 |
| CTAGTGCA | 0.103 |
| AGTCAACT | -0.116 |

| Sequence | PBM E-score |
| --- | --- |
| GCCGAAAA | 0.112 |
| CTGTACGC | -0.0739 |
| CAGTATTC | 0.133 |
| CACAATAA | 0.0648 |
| CCAAGCTC | -0.0892 |
| CCTGACAG | -0.0186 |
| GCCGCACC | -0.164 |
| TGTGCCAA | 0.116 |
| GCCAAACA | 0.0153 |
| ACAAATTC | 0.17 |
| CAATCGGC | -0.0271 |
| CTATCGAC | -0.0599 |
| AATCGGGA | 0.0297 |
| CTCCCGTC | 0.0163 |
| ACAGTACT | -0.0583 |
| AGGGCTCA | -0.194 |
| GCTCGGCC | -0.322 |
| GCAAAGCA | -0.0867 |
| TCTTTACA | 0.231 |
| ACAGCCTC | -0.155 |
| CATTTTAG | 0.121 |
| CGCTCCAC | -0.128 |

Not a retest: an excerpt of the list.

| Sequence | PBM E-score |
| --- | --- |
| TGTGCCAA | 0.116 |
| GCCAAACA | 0.0153 |
| ACAAATTC | 0.17 |
| CAATCGGC | -0.0271 |

Further entries:

| Sequence | PBM E-score |
| --- | --- |
| ATTCGAAG | 0.0799 |
| TAGAGCAA | -0.0378 |
| AGCTAAAA | 0.0436 |
| ATGGCATG | 0.0696 |
| ATAGCGAT | 0.0786 |
| GGTACTCA | 0.00909 |
| GACCCTAC | -0.176 |
| GGTCGAAA | -0.188 |
| CGCGGTAA | 0.115 |
| AGGGCCTC | -0.277 |
| AAGGCTGT | -0.162 |
| GGTTCGTA | 0.116 |
| CCCTTCAC | -0.128 |
| TATCACAA | 0.112 |
| CTTTTGTC | 0.0462 |
| GCACCATA | -0.036 |
| CTGCCGTA | -0.0472 |
| TAACGATA | 0.261 |
| CGTGTCCA | -0.127 |
| GATTAAAC | 0.0276 |
| AGAACCTG | -0.128 |
| ATGTCGTA | 0.0357 |

| Sequence | PBM E-score |
| --- | --- |
| AGGGCGGA | -0.313 |
| ACCAAGTG | -0.15 |
| AGGGACTC | -0.314 |
| CAGCTCAG | -0.164 |
| TGATCGAA | -0.0093 |
| GTCGGCGA | -0.157 |
| TATGCCGA | 0.0214 |
| ATATTTCC | 0.0744 |
| CCTGTCCC | -0.192 |
| AATGGTGT | 0.175 |
| AGTGCGAA | -0.0603 |
| CTAGCCAA | 0.0121 |
| ATCCCTCA | -0.172 |
| AATACTCT | 0.223 |
| CATTTGCG | -0.00392 |
| GCTCATTA | 0.0889 |
| GTTGGAAA | -0.00535 |
| ATTACGGC | 0.241 |
| TACGTTAA | 0.195 |
| AGAATCTC | -0.179 |
| CGTACCCA | 0.0701 |
| ATAATTTA | 0.303 |
